We go through three sequences from patent US20030224992A1, “Transcription factor modulators and uses thereof” (Praecis Pharmaceuticals Inc., priority 2002, published 2003).

Data set [1] addresses T1, Androgen receptor full length (LNCaP nuclear extract) (Homo sapiens) (UniProt P10275).
T1 sequence (looked up, limits assumed): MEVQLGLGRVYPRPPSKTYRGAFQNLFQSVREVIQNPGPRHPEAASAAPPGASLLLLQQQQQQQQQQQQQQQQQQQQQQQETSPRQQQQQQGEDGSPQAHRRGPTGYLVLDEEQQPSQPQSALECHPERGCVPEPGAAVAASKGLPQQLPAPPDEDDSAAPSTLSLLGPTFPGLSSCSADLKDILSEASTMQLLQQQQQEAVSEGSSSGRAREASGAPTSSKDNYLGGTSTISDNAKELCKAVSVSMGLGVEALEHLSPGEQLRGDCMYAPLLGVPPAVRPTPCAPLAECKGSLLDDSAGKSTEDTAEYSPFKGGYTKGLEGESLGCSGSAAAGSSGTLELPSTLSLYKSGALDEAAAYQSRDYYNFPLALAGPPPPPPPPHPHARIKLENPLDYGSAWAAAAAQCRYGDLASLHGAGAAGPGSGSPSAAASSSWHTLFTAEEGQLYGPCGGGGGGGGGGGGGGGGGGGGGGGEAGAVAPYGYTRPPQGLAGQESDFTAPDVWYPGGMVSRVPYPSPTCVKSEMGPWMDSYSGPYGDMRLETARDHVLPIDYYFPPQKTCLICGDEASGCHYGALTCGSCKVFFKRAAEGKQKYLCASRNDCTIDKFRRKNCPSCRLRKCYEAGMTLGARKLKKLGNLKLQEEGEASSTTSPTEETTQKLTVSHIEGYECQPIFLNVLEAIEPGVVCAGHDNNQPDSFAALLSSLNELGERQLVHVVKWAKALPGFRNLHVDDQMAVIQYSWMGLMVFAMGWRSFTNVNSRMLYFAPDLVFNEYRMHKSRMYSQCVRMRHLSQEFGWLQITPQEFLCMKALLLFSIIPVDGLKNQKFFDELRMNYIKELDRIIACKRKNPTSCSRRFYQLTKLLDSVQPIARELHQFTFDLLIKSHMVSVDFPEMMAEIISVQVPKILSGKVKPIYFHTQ
In words: competition with a labelled probe. The following applies: competes with biotin-ARE for native AR, protein in an extract.

The target of data set [2] is T1, Androgen receptor full length (LNCaP nuclear extract) (Homo sapiens). In words: activity in cells. The following applies: decoy at 1, 5 or 20 uM reduced DHT-induced PSA mRNA in electroporated LNCaP cells; protein in an extract.
For data set [3] the target is unchanged. In words: pull-down. The note with it: streptavidin bead pulldown, anti-AR western; DHT-treated cells, cold; protein in an extract; label: 5'-biotin on top strand; variant of ARE duplex.

For some of these results: Where cells or extracts were used, other partners may take part. Protein sequences can lack the tags named with them. For some of these results: Construct, isoform or probe ends are uncertain for at least one entry.

For the sequence “AGTCTGGTACAGGGTGTTCTTTTTA (double strand) [ARE duplex]”, in data set [1] (similar to ARE-MPS), the binding result is listed as “binds”. Moreover, the “activity on this sequence” value in data set [2] is recorded as “active”.
As for “AGTCTGGTACAGGGTGTTCTTTTTA (double strand) [ARE-MPS duplex]”, the binding result in data set [1] (membrane permeable peptide Ac-YARAARRAARRGC-NH2 conjugated at 5' of top strand, similar to ARE, variant of ARE duplex) is reported as “binds”.
Consider “AGTCTGGTACAGGGTGTTCTTTTTA (double strand) [biotin-ARE duplex]”, for which, in data set [3], the binding result is on record as “binds”.
